Data as given in PubChem BioAssay AID1508597 (Cure First, 2020)

Purpose: 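Knock-downs altering ovarian cancer cell survival with or without PARP inhibitor rucaparib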 (primary screen)
System: human ovarian carcinoma lines grown from tumours: OCI-P5x (papillary serous) and OCI-C5x (clear cell)
Reagents: siRNA pool against human genes, 1.25 pmol siRNA per well
Duration: 72 h or 96 h, depending on the cell culture
Challenge: rucaparib 20 µM (about IC30) or vehicle, present until read-out
Rucaparib or vehicle: Rucaparib
Cell line: OCI-P5x (serous)
Read-out: 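ATP luminescence measured at 72 or 96 h according to the culture, then normalised and expressed as percent viability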
Reading the numbers: viability, normalised: higher = more viable cells remaining
Call rule: 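Active when normalised viability falls below 80 percent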
Meaning of the calls: active = viability under 80%; inactive = viability 80% or more
This is a random part of the about 2,100 reagents, under one of the conditions tested. 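Calls flag viability under 80% in either arm, not effects specific to rucaparib; the reference for percent is not stated.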 Entries without a mark were called inactive. A reagent listed more than once was tested more than once; the source does not tell the runs apart. Not stated in the record: the 100% reference.

gene | technical replicate | viability, normalised (%)
ABCG2 (ATP binding cassette subfamily G member 2 (JR blood group)) | 1 | 85.4
ABCG2 (ATP binding cassette subfamily G member 2 (JR blood group)) | 2 | 98.5
ABCG2 (ATP binding cassette subfamily G member 2 (JR blood group)) | 3 | 82.5
PRKCB (protein kinase C beta) | 1 | 31.7 (active)
PRKCB (protein kinase C beta) | 1 | 95.6
PRKCB (protein kinase C beta) | 2 | 85.2
PRKCB (protein kinase C beta) | 2 | 38 (active)
PRKCB (protein kinase C beta) | 3 | 71.5 (active)
PRKCB (protein kinase C beta) | 3 | 39.4 (active)
PMS2 (PMS1 homolog 2, mismatch repair system component) | 1 | 162
PMS2 (PMS1 homolog 2, mismatch repair system component) | 2 | 179
PMS2 (PMS1 homolog 2, mismatch repair system component) | 3 | 141
EPB41L5 (erythrocyte membrane protein band 4.1 like 5) | 1 | 58.1 (active)
EPB41L5 (erythrocyte membrane protein band 4.1 like 5) | 2 | 59.1 (active)
EPB41L5 (erythrocyte membrane protein band 4.1 like 5) | 3 | 65.9 (active)
BTG2 (BTG anti-proliferation factor 2) | 1 | 82
BTG2 (BTG anti-proliferation factor 2) | 2 | 89.3
BTG2 (BTG anti-proliferation factor 2) | 3 | 65.3 (active)
ENPP4 (ectonucleotide pyrophosphatase/phosphodiesterase 4) | 1 | 29.5 (active)
ENPP4 (ectonucleotide pyrophosphatase/phosphodiesterase 4) | 2 | 23.9 (active)
ENPP4 (ectonucleotide pyrophosphatase/phosphodiesterase 4) | 3 | 25.2 (active)
ACVRL1 (activin A receptor like type 1) | 1 | 82
ACVRL1 (activin A receptor like type 1) | 2 | 62.5 (active)
ACVRL1 (activin A receptor like type 1) | 3 | 80.8

Single entries from above:
Value for PMS2 (PMS1 homolog 2, mismatch repair system component), technical replicate 1 in “viability, normalised (%)”: 162
For “viability, normalised (%)”, BTG2 (BTG anti-proliferation factor 2), technical replicate 3 has 65.3 (active)
BTG2 (BTG anti-proliferation factor 2), technical replicate 1, viability, normalised (%) = 82
PMS2 (PMS1 homolog 2, mismatch repair system component), technical replicate 3, viability, normalised (%) → 141
